Test results taken from the supplement of paper PMC12067093, “Discovery and optimisation of a covalent ligand for TRIM25 and its application to targeted protein ubiquitination” (Chemical Science, 2025).
The list shows a part of the results.

Sequences of proteins named here, by UniProt entry; tags and fusion partners are left off. A change or cut given only in a name is not applied to a line headed by its entry.
UniProt O00754: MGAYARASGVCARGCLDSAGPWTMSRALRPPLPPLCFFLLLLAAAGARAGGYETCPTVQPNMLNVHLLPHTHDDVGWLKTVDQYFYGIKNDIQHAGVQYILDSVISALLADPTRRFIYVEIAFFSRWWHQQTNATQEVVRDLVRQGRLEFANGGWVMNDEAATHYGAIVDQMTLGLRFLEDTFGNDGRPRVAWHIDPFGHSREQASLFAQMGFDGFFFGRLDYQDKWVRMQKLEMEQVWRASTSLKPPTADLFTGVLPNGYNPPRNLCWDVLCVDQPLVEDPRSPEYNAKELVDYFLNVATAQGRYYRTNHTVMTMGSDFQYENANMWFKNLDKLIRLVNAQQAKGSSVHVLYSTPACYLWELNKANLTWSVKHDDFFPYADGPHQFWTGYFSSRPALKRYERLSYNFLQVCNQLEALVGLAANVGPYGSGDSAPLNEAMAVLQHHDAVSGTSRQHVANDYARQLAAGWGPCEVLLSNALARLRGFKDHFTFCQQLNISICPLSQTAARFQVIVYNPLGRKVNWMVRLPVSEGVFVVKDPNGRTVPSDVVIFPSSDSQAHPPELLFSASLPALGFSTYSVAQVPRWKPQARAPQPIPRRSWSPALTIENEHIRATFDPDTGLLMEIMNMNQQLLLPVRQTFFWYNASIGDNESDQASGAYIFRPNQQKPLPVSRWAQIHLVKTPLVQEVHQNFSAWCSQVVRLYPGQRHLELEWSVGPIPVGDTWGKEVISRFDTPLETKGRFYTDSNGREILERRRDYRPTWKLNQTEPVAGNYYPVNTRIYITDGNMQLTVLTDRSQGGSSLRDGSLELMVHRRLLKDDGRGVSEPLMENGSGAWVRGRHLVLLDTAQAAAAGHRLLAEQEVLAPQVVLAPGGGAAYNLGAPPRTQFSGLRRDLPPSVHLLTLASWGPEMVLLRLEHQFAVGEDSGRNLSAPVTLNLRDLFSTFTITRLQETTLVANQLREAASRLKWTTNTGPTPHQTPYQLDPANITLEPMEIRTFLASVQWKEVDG
UniProt Q9NQ29: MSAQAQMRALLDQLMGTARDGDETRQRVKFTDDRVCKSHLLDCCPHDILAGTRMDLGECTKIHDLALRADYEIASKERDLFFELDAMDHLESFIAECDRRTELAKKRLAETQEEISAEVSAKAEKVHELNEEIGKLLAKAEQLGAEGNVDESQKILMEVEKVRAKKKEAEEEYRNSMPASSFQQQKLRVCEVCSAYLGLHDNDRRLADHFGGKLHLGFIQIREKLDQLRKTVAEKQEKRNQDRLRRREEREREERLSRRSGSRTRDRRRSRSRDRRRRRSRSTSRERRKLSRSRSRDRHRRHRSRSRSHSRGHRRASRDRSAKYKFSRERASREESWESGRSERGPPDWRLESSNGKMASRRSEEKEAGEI
UniProt P46734: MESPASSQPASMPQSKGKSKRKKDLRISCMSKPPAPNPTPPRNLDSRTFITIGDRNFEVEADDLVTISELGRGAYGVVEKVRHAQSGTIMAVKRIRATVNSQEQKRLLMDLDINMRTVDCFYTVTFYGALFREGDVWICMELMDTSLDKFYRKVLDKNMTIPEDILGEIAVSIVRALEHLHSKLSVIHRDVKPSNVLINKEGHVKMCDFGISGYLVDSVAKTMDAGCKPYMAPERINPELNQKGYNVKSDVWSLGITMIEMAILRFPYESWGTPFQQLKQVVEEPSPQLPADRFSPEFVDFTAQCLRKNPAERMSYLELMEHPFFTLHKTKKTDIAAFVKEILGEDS
UniProt O95372: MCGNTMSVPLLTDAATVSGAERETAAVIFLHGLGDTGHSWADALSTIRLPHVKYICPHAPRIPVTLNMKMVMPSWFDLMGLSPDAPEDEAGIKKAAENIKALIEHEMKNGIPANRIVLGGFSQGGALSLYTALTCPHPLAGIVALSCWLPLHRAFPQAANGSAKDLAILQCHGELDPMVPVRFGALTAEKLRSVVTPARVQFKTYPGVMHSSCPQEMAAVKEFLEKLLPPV
UniProt P31153, whole entry, looked up: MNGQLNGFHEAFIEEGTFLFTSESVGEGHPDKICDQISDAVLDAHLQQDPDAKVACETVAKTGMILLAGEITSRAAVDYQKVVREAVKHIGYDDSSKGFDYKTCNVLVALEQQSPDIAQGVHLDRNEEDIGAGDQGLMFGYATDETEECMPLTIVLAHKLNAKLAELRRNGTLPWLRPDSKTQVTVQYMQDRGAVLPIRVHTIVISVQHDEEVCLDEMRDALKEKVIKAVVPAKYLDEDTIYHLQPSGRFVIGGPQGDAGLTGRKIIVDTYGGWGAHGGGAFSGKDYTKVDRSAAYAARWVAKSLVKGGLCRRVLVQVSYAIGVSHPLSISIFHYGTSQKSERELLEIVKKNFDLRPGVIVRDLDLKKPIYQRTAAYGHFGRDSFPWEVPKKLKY
UniProt P09960: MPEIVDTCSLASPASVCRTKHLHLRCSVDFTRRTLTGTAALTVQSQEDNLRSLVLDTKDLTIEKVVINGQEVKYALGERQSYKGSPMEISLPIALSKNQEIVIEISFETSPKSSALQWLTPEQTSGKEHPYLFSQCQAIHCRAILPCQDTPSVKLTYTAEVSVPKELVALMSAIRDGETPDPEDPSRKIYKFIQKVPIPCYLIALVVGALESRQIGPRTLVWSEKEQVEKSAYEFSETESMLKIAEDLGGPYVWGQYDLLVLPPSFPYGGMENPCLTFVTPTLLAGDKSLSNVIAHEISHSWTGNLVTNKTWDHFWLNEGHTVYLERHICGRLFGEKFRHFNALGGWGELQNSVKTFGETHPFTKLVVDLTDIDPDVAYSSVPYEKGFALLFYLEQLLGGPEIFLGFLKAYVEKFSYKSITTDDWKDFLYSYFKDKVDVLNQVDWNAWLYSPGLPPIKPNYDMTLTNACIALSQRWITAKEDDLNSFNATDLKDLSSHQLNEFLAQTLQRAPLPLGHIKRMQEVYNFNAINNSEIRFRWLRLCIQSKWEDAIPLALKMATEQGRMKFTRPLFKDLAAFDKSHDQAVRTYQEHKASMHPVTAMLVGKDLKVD
UniProt O60449: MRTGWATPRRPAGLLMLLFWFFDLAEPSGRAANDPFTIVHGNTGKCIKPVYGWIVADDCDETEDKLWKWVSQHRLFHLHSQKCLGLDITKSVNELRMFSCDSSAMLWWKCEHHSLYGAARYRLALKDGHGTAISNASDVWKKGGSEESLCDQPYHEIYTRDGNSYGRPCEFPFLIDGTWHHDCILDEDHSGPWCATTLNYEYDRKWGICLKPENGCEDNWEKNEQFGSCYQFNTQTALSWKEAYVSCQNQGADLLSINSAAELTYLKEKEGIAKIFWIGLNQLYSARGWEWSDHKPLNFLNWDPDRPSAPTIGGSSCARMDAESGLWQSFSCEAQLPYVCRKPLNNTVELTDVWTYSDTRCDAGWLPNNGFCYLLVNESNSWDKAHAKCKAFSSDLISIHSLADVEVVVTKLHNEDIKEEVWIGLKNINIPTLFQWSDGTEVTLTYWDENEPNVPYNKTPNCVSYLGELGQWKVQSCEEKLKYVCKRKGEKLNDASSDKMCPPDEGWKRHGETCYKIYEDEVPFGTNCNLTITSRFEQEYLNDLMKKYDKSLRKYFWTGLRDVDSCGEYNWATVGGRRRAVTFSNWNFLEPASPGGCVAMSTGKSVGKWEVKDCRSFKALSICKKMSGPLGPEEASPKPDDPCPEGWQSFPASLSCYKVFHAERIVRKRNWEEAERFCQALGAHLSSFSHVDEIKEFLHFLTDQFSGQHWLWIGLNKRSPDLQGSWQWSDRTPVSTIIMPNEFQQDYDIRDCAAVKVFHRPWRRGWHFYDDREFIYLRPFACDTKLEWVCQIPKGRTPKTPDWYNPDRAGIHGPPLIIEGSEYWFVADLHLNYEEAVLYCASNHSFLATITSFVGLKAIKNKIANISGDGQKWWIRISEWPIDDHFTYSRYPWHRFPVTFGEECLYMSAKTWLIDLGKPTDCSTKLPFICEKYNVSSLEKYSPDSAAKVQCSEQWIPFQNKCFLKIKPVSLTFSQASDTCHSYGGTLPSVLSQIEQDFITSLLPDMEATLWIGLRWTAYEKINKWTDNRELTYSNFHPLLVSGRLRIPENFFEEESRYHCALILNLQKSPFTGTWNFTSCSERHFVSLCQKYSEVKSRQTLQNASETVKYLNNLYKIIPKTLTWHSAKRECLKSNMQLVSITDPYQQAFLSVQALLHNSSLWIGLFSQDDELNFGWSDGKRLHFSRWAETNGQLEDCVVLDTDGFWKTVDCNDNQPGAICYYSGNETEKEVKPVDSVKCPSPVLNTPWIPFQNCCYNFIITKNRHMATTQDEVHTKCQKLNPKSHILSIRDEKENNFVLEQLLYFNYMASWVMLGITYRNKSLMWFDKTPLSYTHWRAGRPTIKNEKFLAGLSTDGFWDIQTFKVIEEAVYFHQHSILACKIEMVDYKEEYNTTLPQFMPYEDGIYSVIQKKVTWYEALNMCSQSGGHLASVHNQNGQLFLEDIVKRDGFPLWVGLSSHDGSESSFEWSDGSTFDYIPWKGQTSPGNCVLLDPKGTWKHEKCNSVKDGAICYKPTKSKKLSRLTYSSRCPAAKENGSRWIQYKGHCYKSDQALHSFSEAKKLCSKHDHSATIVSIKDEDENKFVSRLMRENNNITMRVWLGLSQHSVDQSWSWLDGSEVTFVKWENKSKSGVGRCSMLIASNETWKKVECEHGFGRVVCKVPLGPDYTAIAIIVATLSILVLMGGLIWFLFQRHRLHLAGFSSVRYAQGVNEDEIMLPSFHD
UniProt P45983: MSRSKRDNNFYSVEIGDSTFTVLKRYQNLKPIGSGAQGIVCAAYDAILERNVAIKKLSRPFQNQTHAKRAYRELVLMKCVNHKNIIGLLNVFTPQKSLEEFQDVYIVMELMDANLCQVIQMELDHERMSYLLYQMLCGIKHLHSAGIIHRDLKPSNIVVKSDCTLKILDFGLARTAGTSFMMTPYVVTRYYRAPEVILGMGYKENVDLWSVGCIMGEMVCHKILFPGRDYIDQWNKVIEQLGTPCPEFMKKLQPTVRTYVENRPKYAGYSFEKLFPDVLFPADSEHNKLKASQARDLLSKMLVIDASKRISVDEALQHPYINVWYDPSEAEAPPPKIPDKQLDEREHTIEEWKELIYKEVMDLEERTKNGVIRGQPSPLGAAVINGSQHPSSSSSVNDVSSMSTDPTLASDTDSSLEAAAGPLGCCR
UniProt Q9UIS9: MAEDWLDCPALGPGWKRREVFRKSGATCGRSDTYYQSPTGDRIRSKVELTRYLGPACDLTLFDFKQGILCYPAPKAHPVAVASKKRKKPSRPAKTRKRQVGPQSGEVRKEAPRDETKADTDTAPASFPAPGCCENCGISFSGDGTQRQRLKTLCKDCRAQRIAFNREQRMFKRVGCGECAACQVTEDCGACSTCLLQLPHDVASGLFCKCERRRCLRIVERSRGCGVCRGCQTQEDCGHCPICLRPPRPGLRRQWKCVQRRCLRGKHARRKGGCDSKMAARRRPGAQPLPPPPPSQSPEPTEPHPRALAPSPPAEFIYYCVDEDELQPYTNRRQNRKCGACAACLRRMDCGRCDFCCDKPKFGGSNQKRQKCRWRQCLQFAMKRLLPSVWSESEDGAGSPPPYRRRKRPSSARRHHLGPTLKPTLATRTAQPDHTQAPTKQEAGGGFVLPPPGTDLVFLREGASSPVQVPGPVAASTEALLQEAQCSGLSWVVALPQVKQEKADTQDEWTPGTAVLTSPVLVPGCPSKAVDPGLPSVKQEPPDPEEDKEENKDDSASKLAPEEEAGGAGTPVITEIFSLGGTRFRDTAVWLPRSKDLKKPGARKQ
UniProt O95232: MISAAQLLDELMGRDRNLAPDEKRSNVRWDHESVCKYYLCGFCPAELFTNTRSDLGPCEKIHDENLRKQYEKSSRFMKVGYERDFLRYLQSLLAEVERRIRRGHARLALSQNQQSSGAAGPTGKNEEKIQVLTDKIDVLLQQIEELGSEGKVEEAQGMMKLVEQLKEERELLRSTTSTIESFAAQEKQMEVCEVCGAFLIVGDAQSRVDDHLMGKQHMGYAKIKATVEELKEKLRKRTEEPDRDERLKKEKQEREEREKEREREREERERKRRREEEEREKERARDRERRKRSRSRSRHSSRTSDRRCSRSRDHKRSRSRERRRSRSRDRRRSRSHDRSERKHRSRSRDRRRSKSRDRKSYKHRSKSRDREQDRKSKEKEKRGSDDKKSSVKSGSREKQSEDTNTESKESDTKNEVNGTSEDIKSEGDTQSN
UniProt Q7L5Y9: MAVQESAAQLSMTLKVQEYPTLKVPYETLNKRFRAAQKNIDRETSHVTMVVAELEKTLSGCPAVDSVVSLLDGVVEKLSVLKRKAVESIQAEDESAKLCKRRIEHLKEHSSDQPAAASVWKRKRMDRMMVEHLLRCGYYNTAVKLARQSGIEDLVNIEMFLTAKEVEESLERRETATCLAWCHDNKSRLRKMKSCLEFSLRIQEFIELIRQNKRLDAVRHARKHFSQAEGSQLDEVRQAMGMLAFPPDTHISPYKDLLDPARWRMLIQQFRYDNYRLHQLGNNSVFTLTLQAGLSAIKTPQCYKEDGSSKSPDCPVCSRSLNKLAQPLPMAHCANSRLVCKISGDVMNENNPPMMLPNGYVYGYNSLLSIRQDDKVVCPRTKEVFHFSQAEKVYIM

Compound: CC1Cc2ccccc2N1C(=O)C1CCCN(C1)C(=O)CCl (mixture of isomers) [TRIM25 ligand 11 (diastereomer mixture)]
Test: probe-labelled cysteine peptide fold change vs DMSO (competition) (log2 fold change); higher = less target engagement (more negative = stronger competition)
Conditions: THP-1, incubation time: 4 h
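Also: competitive chemoproteomic profiling in live THP-1 cells with an iodoacetamide desthiobiotin (IA-DTB) probe, comparing probe-labelled peptide intensities in compound-treated cells against DMSO-treated controls.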

| Target | probe-labelled cysteine peptide fold change (10 µM) | probe-labelled cysteine peptide fold change (50 µM) |
| --- | --- | --- |
| LYAR_Q9NX58_25_HVSVCR (UniProt Q9NX58) | 0.426 | -0.0519 |
| MASP1_P48740-2_630_LPVVPHAECK (UniProt P48740) | 0.322 | 0.233 |
| MBNL2_Q5VZF2_19_WLTLEVCR (UniProt Q5VZF2) | -0.126 | -0.0451 |
| MAT2B_Q9NZL9_231_DVATVCR (UniProt Q9NZL9) | -0.163 | -0.00304 |
| MAP7D3_Q8IWC1_264_CTSDELR (UniProt Q8IWC1) | -0.0917 | -0.147 |
| MAPK9_P45984_222_GCVIFQGTDHIDQWNK (UniProt P45984) | -0.0623 | -0.063 |
| MAN2B1_O00754_472_QLAAGWGPCEVLLSNALAR (UniProt O00754) | 0.211 | 0.396 |
| MAPKBP1_O60336_1443_LYHSVAGCK (UniProt O60336) | 0.0367 | 0.16 |
| MAP10_Q9P2G4_648_IQSPCVFQQDAVVDR (UniProt Q9P2G4) | -0.157 | -0.174 |
| LUC7L_Q9NQ29_43+44_SHLLDCCPHDILAGTR (UniProt Q9NQ29) | -0.0678 | -0.133 |
| MAP4_P27816_635_CSLPAEEDSVLEK (UniProt P27816) | -0.069 | -0.135 |
| MAP2K3_P46734_227_TMDAGCKPYMAPER (UniProt P46734) | -0.192 | -0.284 |
| LYPLA2_O95372_213_TYPGVMHSSCPQEMAAVK (UniProt O95372) | 0.0451 |  |
| MACF1_Q9UPN3_443_IQNGALNCEEK (UniProt Q9UPN3) | 0.147 | 0.132 |
| MAT2A_P31153_56_VACETVAK (UniProt P31153) | 0.00164 | 0.047 |
| MAP1S_Q66K74_841_HDPLPDPLKVPPPLPDPSSICMVDPEMLPPK (UniProt Q66K74) | -0.202 |  |
| MAN2C1_Q9NTJ4_29_FVSPLYFTDCNLR (UniProt Q9NTJ4) | 0.111 |  |
| M6PR_P20645_132_GGDEYDNHCGK (UniProt P20645) | -0.0971 | -0.257 |
| MANBA_O00462_176_GECHVNFVR (UniProt O00462) | 0.0138 | -0.0444 |
| LYZ_P61626_48_GISLANWMCLAK (UniProt P61626) | -0.11 | -0.144 |
| MAN2A1_Q16706_840_IYSEVTCFFDHVTHR (UniProt Q16706) | 0.132 | 0.17 |
| MARS2_Q96GW9_336+344_ICVHSHWTVCGQK (UniProt Q96GW9) | 0.15 | 0.0821 |

| Target | probe-labelled cysteine peptide fold change (10 µM) | probe-labelled cysteine peptide fold change (50 µM) |
| --- | --- | --- |
| LYPLA1_O75608_53_YICPHAPVRPVTLNMNVAMPSWFDIIGLSPDSQEDESGIK (UniProt O75608) | -0.0108 | -0.0817 |
| MAT2A_P31153_214_VHTIVISVQHDEEVCLDEMRDALK (UniProt P31153) | -0.156 | -0.119 |
| MAN2B1_O00754_273_NLCWDVLCVDQPLVEDPR (UniProt O00754) | -0.0362 | -0.232 |
| MACF1_Q9UPN3_2895_SLGQVSLTHPYSECDFK (UniProt Q9UPN3) | 0.0255 | -0.275 |
| LTA4H_P09960_147_AILPCQDTPSVK (UniProt P09960) | -0.0428 | -0.0947 |
| MAP4_P27816-4_243_LSFCEDQNAQDR (UniProt P27816) | 0.0716 | 0.0752 |
| LY75_O60449_110_CEHHSLYGAAR (UniProt O60449) | 0.335 | -0.00851 |
| MAPK8_P45983_163_SDCTLK (UniProt P45983) | -0.054 | 0.102 |
| MAGT1_Q9H0U3_87_QCVVCK (UniProt Q9H0U3) | 0.0455 | 0.323 |
| LYN_P07948_219_QADGLCR (UniProt P07948) | -0.0504 | 0.114 |
| LYST_Q99698_2127_LTGSLGCSIDR (UniProt Q99698) | 0.061 | 0.105 |
| MBD1_Q9UIS9_525_ADTQDEWTPGTAVLTSPVLVPGCPSK (UniProt Q9UIS9) | -0.0898 | -0.159 |
| LUC7L3_O95232_40+43_YYLCGFCPAELFTNTR (UniProt O95232) | 0.142 | -0.332 |
| MARS_P56192_309_QWNTLYLCGTDEYGTATETK (UniProt P56192) | 0.206 | 0.143 |
| LTA4H_P09960_26_CSVDFTR (UniProt P09960) | -0.0535 | -0.00265 |
| LYST_Q99698_2168_GKEDAFISSCESAK (UniProt Q99698) | 0.00283 | -0.394 |
| MAPRE1_Q15691_228_NIELICQENEGENDPVLQR (UniProt Q15691) | 0.21 | 0.0703 |
| LUC7L3_O95232_58_SDLGPCEK (UniProt O95232) | -0.0397 | -0.155 |
| MACF1_Q9UPN3_2629_KEGLLTNEAVLSPGMMHGIVDPENCR (UniProt Q9UPN3) | -0.0238 | 0.0638 |
| MACF1_Q9UPN3_5346_IAQLQEALLHCGK (UniProt Q9UPN3) | 0.031 | 0.000666 |
| MAZ_P56270_371_CEAAFATK (UniProt P56270) | 0.0417 | 0.237 |
| MARS_P56192_389_CEHCAR (UniProt P56192) | 0.0927 | 0.0581 |

| Target | probe-labelled cysteine peptide fold change (10 µM) | probe-labelled cysteine peptide fold change (50 µM) |
| --- | --- | --- |
| LYPLA2_O95372_56_YICPHAPR (UniProt O95372) | 0.0524 | -0.0211 |
| LTA4H_P09960_136+141_EHPYLFSQCQAIHCR (UniProt P09960) | 0.159 | -0.0225 |
| MAK16_Q9BXY0_39_NEYSLTGLCNR (UniProt Q9BXY0) | -0.0399 | 0.00588 |
| MAP3K20_Q9NYL2_571_SDSSADCQWLDTLR (UniProt Q9NYL2) | -0.17 | -0.244 |
| MAEA_Q7L5Y9_61_TLSGCPAVDSVVSLLDGVVEK (UniProt Q7L5Y9) | -0.278 | -0.111 |
| MAT2B_Q9NZL9_263_YEMACAIADAFNLPSSHLRPITDSPVLGAQRPR (UniProt Q9NZL9) | -0.239 | -0.039 |
| MAP4K3_Q8IVH8_509_DGSLCQQQNEHR (UniProt Q8IVH8) | 0.0483 | -0.0549 |
| MAP4K4_O95819_496_HLEVLQQQLLQEQAMLLECR (UniProt O95819) | -0.0501 | -0.213 |
| LTA4H_P09960_141_EHPYLFSQCQAIHCR (UniProt P09960) | 0.0431 | 0.228 |
| LY75_O60449_566_DVDSCGEYNWATVGGR (UniProt O60449) | -0.0643 | 0.143 |
| MACF1_Q9UPN3_986_SSAPGECHQIMK (UniProt Q9UPN3) | -0.0377 | 0.0156 |
| LUC7L_Q9NQ29_44_SHLLDCCPHDILAGTR (UniProt Q9NQ29) | -0.0733 | -0.0524 |
| MAPK1_P28482_127_TQHLSNDHICYFLYQILR (UniProt P28482) | 0.115 | 0.214 |
| MAP3K4_Q9Y6R4_1581_DFLSHCLESDPK (UniProt Q9Y6R4) | -0.00106 | -0.00344 |
| MACF1_Q9UPN3_1806_HNLIDQDMACAILIR (UniProt Q9UPN3) | -0.0339 | 0.163 |
| MARS_P56192_333_ALEEGLTPQEICDK (UniProt P56192) | 0.088 | 0.151 |
| MARS_P56192_405_FVEGVCPFCGYEEAR (UniProt P56192) | -0.0809 | -0.136 |
| MAVS_Q7Z434_133_TSDRPPDPLEPPSLPAERPGPPTPAAAHSIPYNSCR (UniProt Q7Z434) | 0.0353 | -0.142 |
| MAPK8_P45983_41_YQNLKPIGSGAQGIVCAAYDAILER (UniProt P45983) | -5.59e-05 | -0.0715 |
| MAT2B_Q9NZL9_58_EFQQNNWHAVGCGFR (UniProt Q9NZL9) | 0.0159 | -0.0574 |
| MAP2K3_P46734_29_ISCMSKPPAPNPTPPR (UniProt P46734) | -0.0609 | -0.253 |
| MACROD1_Q9BQ69_246_SCYLSSLDLLLEHR (UniProt Q9BQ69) | -0.0302 | -0.0149 |

| Target | probe-labelled cysteine peptide fold change (10 µM) | probe-labelled cysteine peptide fold change (50 µM) |
| --- | --- | --- |
| MACF1_Q9UPN3_4325_DASSCQEQLDEFRK (UniProt Q9UPN3) | 0.0551 | -0.0169 |
| MAPK9_P45984_213_ENVDIWSVGCIMGELVK (UniProt P45984) | 0.0811 | 0.179 |
| MACF1_Q9UPN3_1522_AYHDLCDGSANQLQQLQSQLAHQTEQK (UniProt Q9UPN3) | 0.0986 | -0.17 |
| LYPLA1_O75608_144_LAGVTALSCWLPLR (UniProt O75608) | -0.0238 | 0.129 |
| MBD1_Q9UIS9_28_SGATCGR (UniProt Q9UIS9) | -0.0966 | -0.103 |
| MAP2K6_P52564_294_FSAEFVDFTSQCLK (UniProt P52564) | 0.103 | 0.203 |
| MARS_P56192_38_AEVLISTVGPEDCVVPFLTRPK (UniProt P56192) | -0.0893 | -0.138 |
| MAEA_Q7L5Y9_195_SCLEFSLR (UniProt Q7L5Y9) | -0.00611 | -0.0173 |
| LYST_Q99698_1646+1651_TFCMIGHCLSSQEEFLQLAGK (UniProt Q99698) | -0.00283 | -0.0572 |
| LY75_O60449_83_CLGLDITK (UniProt O60449) | -0.12 | 0.154 |
| MBD2_Q9UBB5_152_MDCPALPPGWK (UniProt Q9UBB5) | -0.164 | -0.00934 |
| MAP3K20_Q9NYL2_242_SFAELLHQCWEADAK (UniProt Q9NYL2) | 0.0196 | -0.0121 |
| MAT1A_Q00266_34_ICDQISDAVLDAHLK (UniProt Q00266) | 0.555 | 0.255 |
| MAT2B_Q9NZL9_17_ELSIHFVPGSCR (UniProt Q9NZL9) | -0.0429 | -0.0991 |
| MARS_P56192_12_LFVSDGVPGCLPVLAAAGR (UniProt P56192) | 0.00736 | -0.00116 |
| MAPK7_Q13164_194_DLKPSNLLVNENCELK (UniProt Q13164) | -0.246 | -0.257 |
| MAP1S_Q66K74_743_SASPHDVDLCLVSPCEFEHR (UniProt Q66K74) | -0.0363 | -0.283 |
| MACO1_Q8N5G2_315_EDSCTASSK (UniProt Q8N5G2) | -0.181 | -0.313 |
| MAVS_Q7Z434_33_NFSNFCNVDVVEILPYLPCLTAR (UniProt Q7Z434) | 0.142 | 0.343 |
